Data reported in US5359075A, “Quinophthalone compound” (Mitsui Toatsu Chemicals, Incorporated, priority 1991, dated 1994).
Some entries repeat one wording, which the source may state once for all of them.

Experiments:
[1] = Resin coloring suitability test: bleeding properties; details: 0.02 pts. wt., vinyl chloride plate, 5 kg/cm^2, 90° C. for 5 hr; for Bleeding properties (B), ABS: Acrylonitrile/butadiene/styrene; for Bleeding properties (B), PC: Polycarbonate; for Bleeding properties (B), PET: Polyethylene glycol terephthalate; for Bleeding properties (B), PS: Polystyrene
Method: For the compounds (B, C, D, F, G and H), a resin coloring suitability test was conducted.
B: Bleeding properties: A colored plate was superposed upon a vinyl
chloride plate, and a pressure of 5 kg/cm^2 was applied thereto and a
treatment was then carried out at 90° C. for 5 hr. Afterward, the
soil on the vinyl chloride plate was evaluated by a gray scale.
Heat resistance and bleed resistance: […]
judgement, and the fifth grade or more was denoted by .circleincircle. an
the third to fifth grades by .largecircle..

[2] = Dichroic ratio / liquid crystal display element in liquid crystal mixture E-8; details: for color of display device during applying no voltage: liquid crystal E-8, no voltage; for electrode parts when the voltage was applied: liquid crystal E-8, voltage applied
Method: Each of the dyestuffs of Examples 12 and 13 was added to 9.8 parts of a liquid crystal mixture of a trade name E-8 made by Merck AG, and the mixture was then heated up to about 60° C. to completely dissolve the dyestuff. After cooling, the solution was poured into a liquid crystal display element, and it was then hermetically sealed.
Each sample was put on a light path of a spectrophotometer, and an absorbance A was measured by applying straight polarized light to the liquid crystal in parallel with the arrangement of the liquid crystal and an absorbance A' was measured by applying straight polarized light to the liquid crystal at a right angle to the arrangement of the liquid crystal. By the use of the thus measured absorbances A and A', a dichroic ratio was calculated in accordance with the following formula: […]
Furthermore, as comparative preparation examples, otherwise the same liquid crystals as mentioned above were prepared from compounds for comparison represented by the following formulae (K) and (L).

SMILES	Bleeding properties (B), ABS [1]	Bleeding properties (B), PC [1]	Bleeding properties (B), PET [1]	Bleeding properties (B), PS [1]	Dichroic Ratio ([2]; A/A', liquid crystal E-8)	contrast ([2]; liquid crystal E-8)	color of display device during applying no voltage [2]	electrode parts when the voltage was applied [2]
CC1CN=C(c2ccc3c(c2)C(=O)C(c2nc4ccccc4cc2O)C3=O)O1 (stereo not drawn) [B]	.largecircle. (the third to fifth grades)	.largecircle. (the third to fifth grades)	.largecircle. (the third to fifth grades)	.largecircle. (the third to fifth grades)	–	–	–	–
CC(C)c1nnc(-c2ccc3c(c2)C(=O)C(c2nc4ccccc4cc2O)C3=O)o1 (stereo not drawn) [C]	.largecircle. (the third to fifth grades)	–	.largecircle. (the third to fifth grades)	–	–	–	–	–
CC(C)c1ccc2nc(C3C(=O)c4ccccc4C3=O)c(O)cc2c1 [D]	.largecircle. (the third to fifth grades)	–	.circleincircle. (the fifth grade or more)	–	–	–	–	–
CCCCCCCCOc1ccc(-c2ccc(N3C(=O)c4cc5c(cc4C3=O)C(=O)C(c3nc4ccc(C(C)C)cc4cc3O)C5=O)cc2)cc1 [Example 12]	–	–	–	–	8.5	good contrast	sharp and deep yellow	colorless
Cc1ccc2oc(-c3ccc(-c4ccc(N5C(=O)c6cc7c(cc6C5=O)C(=O)C(c5nc6ccc(C(C)C)cc6cc5O)C7=O)cc4)cc3)nc2c1 [Example 13]	–	–	–	–	–	good contrast	sharp and deep yellow	colorless
CCCCN(CCCC)C(=O)c1ccc2c(c1)C(=O)C(c1nc3ccc(C(C)C)cc3cc1O)C2=O (stereo not drawn) [F]	.circleincircle. (the fifth grade or more)	.circleincircle. (the fifth grade or more)	.circleincircle. (the fifth grade or more)	.circleincircle. (the fifth grade or more)	–	–	–	–
CCC1(CO)COC(c2ccc3c(c2)C(=O)C(c2nc4ccc(C(C)C)cc4cc2O)C3=O)=N1 (stereo not drawn) [G]	.circleincircle. (the fifth grade or more)	.circleincircle. (the fifth grade or more)	.circleincircle. (the fifth grade or more)	.circleincircle. (the fifth grade or more)	–	–	–	–
CCC1(COC(=O)C(C)C)COC(c2ccc3c(c2)C(=O)C(c2nc4ccc(C(C)C)cc4cc2O)C3=O)=N1 (stereo not drawn) [H]	.circleincircle. (the fifth grade or more)	.circleincircle. (the fifth grade or more)	.circleincircle. (the fifth grade or more)	.circleincircle. (the fifth grade or more)	–	–	–	–
